In paper PMC3948843:
No constants are given. Whether binding was seen depends on the method and setting. Binding seen in cells or lysates may run through a third protein. Some binding calls cover weakened binding; strength is not graded here.

Sequences of proteins named here, by UniProt entry; tags and fusion partners are left off.
UniProt P11275: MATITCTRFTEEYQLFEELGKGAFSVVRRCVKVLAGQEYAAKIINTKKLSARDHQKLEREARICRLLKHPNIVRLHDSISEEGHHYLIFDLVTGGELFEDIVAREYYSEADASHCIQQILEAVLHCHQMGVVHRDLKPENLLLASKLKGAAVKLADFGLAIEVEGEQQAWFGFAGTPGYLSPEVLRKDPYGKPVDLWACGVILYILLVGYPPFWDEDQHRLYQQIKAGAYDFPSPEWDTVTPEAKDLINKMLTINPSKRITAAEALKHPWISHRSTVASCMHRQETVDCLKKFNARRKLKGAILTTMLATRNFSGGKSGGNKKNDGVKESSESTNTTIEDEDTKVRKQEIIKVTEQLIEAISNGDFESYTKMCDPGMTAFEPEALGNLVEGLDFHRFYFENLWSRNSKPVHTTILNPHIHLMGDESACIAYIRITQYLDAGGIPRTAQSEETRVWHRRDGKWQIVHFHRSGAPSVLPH

Molecular target: T1, CYLD (endogenous, PSD fraction) (rat (endogenous in cerebral cortex PSD fraction)) (UniProt Q66H62)
T1 sequence: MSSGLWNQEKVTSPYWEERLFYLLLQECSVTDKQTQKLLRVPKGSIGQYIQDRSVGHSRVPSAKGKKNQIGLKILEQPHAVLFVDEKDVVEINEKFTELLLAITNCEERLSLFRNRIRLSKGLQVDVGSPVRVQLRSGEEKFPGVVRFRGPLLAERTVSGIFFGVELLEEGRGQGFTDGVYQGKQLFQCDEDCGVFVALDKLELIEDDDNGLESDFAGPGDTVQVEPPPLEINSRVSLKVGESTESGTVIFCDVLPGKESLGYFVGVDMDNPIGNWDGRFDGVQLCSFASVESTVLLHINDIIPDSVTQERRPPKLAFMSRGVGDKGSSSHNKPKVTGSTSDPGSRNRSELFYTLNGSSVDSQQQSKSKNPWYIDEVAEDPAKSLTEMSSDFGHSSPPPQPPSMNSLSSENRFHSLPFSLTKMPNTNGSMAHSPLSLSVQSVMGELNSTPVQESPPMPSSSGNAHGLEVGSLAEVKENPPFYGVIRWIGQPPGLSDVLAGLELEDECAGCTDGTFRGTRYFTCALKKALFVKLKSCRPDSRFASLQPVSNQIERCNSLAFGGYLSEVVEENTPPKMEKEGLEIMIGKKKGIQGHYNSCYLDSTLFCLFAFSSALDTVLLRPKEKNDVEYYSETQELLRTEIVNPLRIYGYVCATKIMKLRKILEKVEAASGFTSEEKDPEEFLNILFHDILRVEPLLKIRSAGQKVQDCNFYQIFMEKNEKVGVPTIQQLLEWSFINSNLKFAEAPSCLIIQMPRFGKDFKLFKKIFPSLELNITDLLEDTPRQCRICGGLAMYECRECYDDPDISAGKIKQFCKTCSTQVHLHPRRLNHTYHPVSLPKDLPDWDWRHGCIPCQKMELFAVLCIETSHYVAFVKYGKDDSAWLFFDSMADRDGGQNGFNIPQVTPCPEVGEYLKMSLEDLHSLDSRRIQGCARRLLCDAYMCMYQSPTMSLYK
Assay: co-IP; rat cerebral cortex PSD fraction solubilized in 1% SDS, diluted to 0.5% TX-100; CYLD mouse monoclonal antibody (E-4) and protein-A agarose beads; washed with 1% TX-100 in PBS; Western blot for CYLD and alphaCaMKII; non-phosphorylating conditions

## CaMKII (PSD-associated, detected with an antibody to alphaCaMKII) (from UniProt P11275 1-478) (enzyme)
  binding: binds
